In US8334288B2, “4-phenoxymethylpiperidines as modulators of GPR119 activity” (IRM LLC, priority 2008, dated 2012):
The structures given here were assigned with low confidence; some may be wrong.

The chains behind the UniProt entries cited, without tags or fusion partners.
UniProt Q8TDV5, whole entry: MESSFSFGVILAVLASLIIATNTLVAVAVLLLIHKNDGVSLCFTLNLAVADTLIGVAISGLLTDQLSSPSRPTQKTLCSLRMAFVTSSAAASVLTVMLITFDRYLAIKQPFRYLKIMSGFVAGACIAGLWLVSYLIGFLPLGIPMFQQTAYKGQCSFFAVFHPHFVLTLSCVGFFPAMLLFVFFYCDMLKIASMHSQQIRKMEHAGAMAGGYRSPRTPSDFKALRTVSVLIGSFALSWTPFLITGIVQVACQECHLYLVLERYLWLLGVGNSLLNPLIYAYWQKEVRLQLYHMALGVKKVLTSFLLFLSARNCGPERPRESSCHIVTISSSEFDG

Target: human GPR119 (Homo sapiens, UniProt Q8TDV5)
Assay: Cyclic AMP assay in stable cell line (HTRF, Flp-In-CHO-hGPR119 cells)
Conditions: read-out: CHO-hGPR119 cells (EC50 − nM), increase in intracellular cAMP, 30 minutes at 37° C., 1 mM IBMX
Protocol: Flp-In-CHO cells (Invitrogen, Cat. #R758-07) are maintained in Ham's F12 medium supplemented with 10% fetal bovine serum, 1% antibiotic mixture and 2 mM L-glutamine. The cells are transfected with a DNA mixture containing human GPR119 in pcDNA5/FRT vector and the pOG44 vector (1:9) using Fugene6 (Roche), according to the manufacturer's instruction. After 48 h, the medium is changed to medium supplemented with 400 μg/ml hygromycin B to initiate the selection of stably transfected cells.
To test the activity of compounds of the invention, Flp-In-CHO-hGPR119 cells are harvested and resuspended in DMEM plus 3% lipid-depleted fetal bovine serum. Forth μl of cells are plated in 384 well plates at a density of 15,000 cells/well. IBMX (3-isobutyl-1-methyl-xanthine) is added to the cells to a final concentration of 1 mM, followed by the addition of 500 nl of the compound to be tested. The cells are incubated at 37° C. for 30 minutes. Equal volume (20 μl) of the HTRF reagents, anti-cAMP-Cryptate and cAMP-XL665, are added to the cells. The plates are incubated at rt for 1 h and read on a HTRF reader according to the manufacturer's instruction.

Work on `CCc1cnc(N2CCC(COc3c(F)cc(-c4ccc(C(=O)N(C)C)nc4)cc3F)CC2)nc1` yielded an EC50 of 4 nM.
